Reference: the supplement of paper PMC6078165

Test system: MDAMB468
Experiment: relative JC-1 red fluorescence (viability) vs pre-drug, coculture with fibroblast (fraction); higher = more viable cancer cells
Procedure: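 JC-1 labelled TNBC cells cocultured 1:1 (1,500 cells each) with CellTrace Violet stained primary or stromal fibroblasts in 384-well plates in FluoroBrite medium, treated with one of 42 anticancer drugs at 0.1, 1, 10 or 100 uM. JC-1 red fluorescence (mitochondrial integrity in cancer cells only) was read by plate reader every 8 h for 72 h. Values are normalised to each well's pre-drug value. The stock of one drug was tenfold lower, so its dose labels may be too high.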

Cc1c2oc3c(C)ccc(C(=O)N[C@@H]4C(=O)N[C@H](C(C)C)C(=O)N5CCC[C@H]5C(=O)N(C)CC(=O)N(C)[C@@H](C(C)C)C(=O)O[C@@H]4C)c3nc-2c(C(=O)N[C@@H]2C(=O)N[C@H](C(C)C)C(=O)N3CCC[C@H]3C(=O)N(C)CC(=O)N(C)[C@@H](C(C)C)C(=O)O[C@@H]2C)c(N)c1=O [Dactinomycin] (I: T[dV]P[Sar][NMeV] / II: T[dV]P[Sar][NMeV]; ester I:1-I:C, II:1-II:C; linker I:N-II:N via Actinocin(9to1))
relative JC-1 red fluorescence
Conditions	8 h	16 h	24 h	32 h	40 h	48 h	56 h	64 h	72 h
0.1 µM, coculture fibroblast: C12385	0.877	0.9033	0.927	0.917	0.906	0.888	0.958	0.884	0.899
0.1 µM, coculture fibroblast: H6013	0.8672	0.851	0.815	0.79	0.767	0.777	0.7469	0.7472	0.691
0.1 µM, coculture fibroblast: H6019	0.8649	0.8788	0.8762	0.835	0.8196	0.88982	0.8999	0.9387	0.9812
0.1 µM, coculture fibroblast: H6076	0.908	0.9068	0.8328	0.823	0.755	0.758	0.747	0.732	0.774
0.1 µM, coculture fibroblast: H6231	0.786	0.858	0.768	0.769	0.697	0.651	0.589	0.559	0.5621
0.1 µM, coculture fibroblast: HADF	0.8505	0.8379	0.784	0.77	0.747	0.765	0.738	0.746	0.693
0.1 µM, coculture fibroblast: HCFa	0.852	0.844	0.777	0.759	0.714	0.725	0.686	0.683	0.625
0.1 µM, coculture fibroblast: HCPF	0.85728	0.9416	0.844	0.8278	0.754	0.71	0.638	0.628	0.632
0.1 µM, coculture fibroblast: HHSteC	0.885	0.841	0.804	0.761	0.718	0.722	0.66	0.645	0.582
0.1 µM, coculture fibroblast: HMF	0.8416	0.934	0.847	0.844	0.773	0.74	0.659	0.636	0.62
0.1 µM, coculture fibroblast: HPFa	0.905	0.8652	0.807	0.7526	0.7361	0.759	0.704	0.69	0.618
0.1 µM, coculture fibroblast: HUF	0.867	0.809	0.767	0.714	0.701	0.734	0.7	0.713	0.71
0.1 µM, coculture fibroblast: Hs5	0.9684	0.91	0.869	0.853	0.792	0.778	0.771	0.75	0.784
0.1 µM, coculture fibroblast: Hs27A	0.854	0.893	0.846	0.856	0.839	0.87	0.844	0.835	0.77
0.1 µM, coculture fibroblast: Hs343T	0.882	0.948	0.843	0.817	0.731	0.6814	0.5915	0.57	0.561
0.1 µM, coculture fibroblast: WS1	0.879	0.85	0.835	0.8048	0.777	0.784	0.783	0.788	0.794
1 µM, coculture fibroblast: C12385	0.784	0.741	0.706	0.662	0.631	0.644	0.597	0.587	0.592
1 µM, coculture fibroblast: H6013	0.8245	0.754	0.693	0.637	0.606	0.604	0.567	0.558	0.492
1 µM, coculture fibroblast: H6019	0.772	0.7013	0.661	0.61	0.58	0.585	0.557	0.548	0.558
1 µM, coculture fibroblast: H6076	0.8798	0.833	0.7241	0.7	0.611	0.58	0.54	0.512	0.553
1 µM, coculture fibroblast: H6231	0.79	0.799	0.692	0.683	0.591	0.559	0.517	0.493	0.506
1 µM, coculture fibroblast: HADF	0.842	0.806	0.727	0.693	0.65	0.639	0.577	0.555	0.487
1 µM, coculture fibroblast: HCFa	0.83	0.763	0.697	0.639	0.623	0.633	0.601	0.586	0.537
1 µM, coculture fibroblast: HCPF	0.8268	0.806	0.71	0.715	0.63	0.594	0.559	0.549	0.545
1 µM, coculture fibroblast: HHSteC	0.8387	0.77068	0.726	0.678	0.68	0.688	0.634	0.612	0.552
1 µM, coculture fibroblast: HMF	0.80659	0.807	0.7016	0.67546	0.591	0.576	0.5398	0.5333	0.5394
1 µM, coculture fibroblast: HPFa	0.87	0.784	0.747	0.666	0.638	0.636	0.591	0.586	0.523
1 µM, coculture fibroblast: HUF	0.8172	0.693	0.616	0.542	0.511	0.496	0.456	0.447	0.438
1 µM, coculture fibroblast: Hs5	0.947	0.833	0.745	0.712	0.616	0.582	0.553	0.528	0.571
1 µM, coculture fibroblast: Hs27A	0.8168	0.7837	0.716	0.685	0.663	0.6739	0.648	0.633	0.5742
1 µM, coculture fibroblast: Hs343T	0.842	0.832	0.72	0.673	0.567	0.543	0.507	0.485	0.488
1 µM, coculture fibroblast: WS1	0.8059	0.694	0.608	0.549	0.514	0.512	0.497	0.492	0.5
10 µM, coculture fibroblast: C12385	0.722	0.577	0.515	0.451	0.4091	0.4097	0.383	0.383	0.38
10 µM, coculture fibroblast: H6013	0.8005	0.735	0.6709	0.605	0.576	0.567	0.524	0.512	0.451
10 µM, coculture fibroblast: H6019	0.76	0.716	0.701	0.677	0.66	0.675	0.638	0.627	0.637
10 µM, coculture fibroblast: H6076	0.867	0.805	0.688	0.66	0.556	0.537	0.503	0.483	0.508
10 µM, coculture fibroblast: H6231	0.7715	0.793	0.676	0.655	0.538	0.507	0.463	0.445	0.457
10 µM, coculture fibroblast: HADF	0.797	0.72	0.661	0.644	0.618	0.603	0.564	0.551	0.48
10 µM, coculture fibroblast: HCFa	0.788	0.70077	0.642	0.6	0.569	0.574	0.547	0.532	0.476
10 µM, coculture fibroblast: HCPF	0.832	0.851	0.75	0.74	0.628	0.581	0.522	0.508	0.513
10 µM, coculture fibroblast: HHSteC	0.823	0.757	0.708	0.665	0.657	0.664	0.605	0.585	0.519
10 µM, coculture fibroblast: HMF	0.801	0.817	0.688	0.657	0.553	0.518	0.476	0.457	0.457
10 µM, coculture fibroblast: HPFa	0.79	0.693	0.652	0.588	0.585	0.589	0.55	0.554	0.49
10 µM, coculture fibroblast: HUF	0.772	0.667	0.596	0.521	0.48	0.476	0.436	0.435	0.432
10 µM, coculture fibroblast: Hs5	0.932	0.802	0.705	0.666	0.578	0.54	0.526	0.498	0.53
10 µM, coculture fibroblast: Hs27A	0.751	0.71	0.619	0.58	0.56	0.555	0.516	0.502	0.442
10 µM, coculture fibroblast: Hs343T	0.844	0.839	0.71	0.67	0.556	0.517	0.477	0.464	0.464
10 µM, coculture fibroblast: WS1	0.726	0.57	0.505	0.441	0.396	0.38	0.357	0.348	0.351
100 µM, coculture fibroblast: C12385	0.705	0.692	0.677	0.63	0.592	0.588	0.547	0.5361	0.538
100 µM, coculture fibroblast: H6013	0.74	0.6768	0.62	0.568	0.542	0.535	0.4806	0.462	0.397
100 µM, coculture fibroblast: H6019	0.6833	0.608	0.577	0.519	0.482	0.476	0.438	0.425	0.4
100 µM, coculture fibroblast: H6076	0.828	0.729	0.645	0.627	0.549	0.524	0.49	0.466	0.501
100 µM, coculture fibroblast: H6231	0.715	0.689	0.605	0.635	0.548	0.514	0.467	0.437	0.452
100 µM, coculture fibroblast: HADF	0.74	0.699	0.656	0.63	0.588	0.571	0.531	0.5064	0.446
100 µM, coculture fibroblast: HCFa	0.7155	0.6768	0.638	0.622	0.5776	0.578	0.536	0.511	0.457
100 µM, coculture fibroblast: HCPF	0.761	0.75	0.6739	0.7	0.618	0.593	0.561	0.541	0.541
100 µM, coculture fibroblast: HHSteC	0.7613	0.647	0.59	0.531	0.494	0.493	0.425	0.4	0.345
100 µM, coculture fibroblast: HMF	0.769	0.756	0.682	0.662	0.566	0.547	0.51	0.493	0.493
100 µM, coculture fibroblast: HPFa	0.759	0.693	0.648	0.573	0.576	0.582	0.542	0.535	0.47
100 µM, coculture fibroblast: HUF	0.7792	0.734	0.7	0.6409	0.596	0.585	0.546	0.5447	0.5308
100 µM, coculture fibroblast: Hs5	0.8587	0.72949	0.715	0.7102	0.635	0.616	0.597	0.57	0.61
100 µM, coculture fibroblast: Hs27A	0.7025	0.663	0.596	0.569	0.526	0.522	0.48	0.464	0.402
100 µM, coculture fibroblast: Hs343T	0.779	0.762	0.736	0.751	0.658	0.64	0.6	0.586	0.582
100 µM, coculture fibroblast: WS1	0.7326	0.665	0.614	0.557	0.501	0.48	0.456	0.441	0.437

Values are relative to the signal before dosing, not to a vehicle control; the signal also falls without drug.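 Labels refer to human fibroblasts, largely primary: uterine (C12385, HUF), lung (H6013), bone (Hs27A), adrenal (HADF), skin (WS1), plus mammary HMF and breast cancer-associated Hs343T. Cancer lines are basal-like or mesenchymal-like triple-negative breast cancer. The paper counts as hits responses shifting over 3x the replicate standard deviation. The tissue of the other fibroblasts is not given here.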 Numbered stars: 1 amine (or outer) side, 2 acyl side, 3 side chain; on linkers, the order of the positions; unused ones are H or OH. Bridge positions count the residues as written; N and C are the ends. Square brackets hold non-standard residues; d marks the D form. Peptide text beside a SMILES is read from it. I, II: the chains in the order shown. Actinocin(9to1) = Cc1c2oc3c(C)ccc(C(=O)[*:1])c3nc-2c(C(=O)[*:2])c(N)c1=O; NMeV = CN[C@H](C(=O)O)C(C)C; Sar = CNCC(=O)O
